For at least one compound, name, drawing or mass did not settle the structure.
Biological target: T1, OX40 (Homo sapiens, UniProt P43489)
T1 construct: host or cells: OX40 Jurkat cells (NF-kB luciferase reporter)
T1 sequence (P43489 29-277): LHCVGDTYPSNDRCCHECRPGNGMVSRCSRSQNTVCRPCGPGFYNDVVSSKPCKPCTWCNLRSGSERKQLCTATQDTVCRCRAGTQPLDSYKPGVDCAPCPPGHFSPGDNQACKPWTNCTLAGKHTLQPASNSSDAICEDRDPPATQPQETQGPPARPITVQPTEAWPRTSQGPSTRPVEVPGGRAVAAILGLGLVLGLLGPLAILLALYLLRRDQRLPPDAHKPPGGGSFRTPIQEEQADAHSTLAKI
Assay: Promega OX40 cell-activity assay (NF-κB luciferase read-out in OX40 Jurkat cells)
Type: cell-based

For CC(C)C[C@@H]1NC(=O)[C@@H](NC(=O)[C@H](C)N)CSCCC(=O)N2CN3CN(C2)C(=O)CCSC[C@H](NC(=O)[C@@H]2CCCN2C(=O)[C@H](CO)NC(=O)[C@H](Cc2ccc(O)cc2)NC1=O)C(=O)N[C@@H](Cc1c[nH]c2ccccc12)C(=O)N[C@@H](Cc1c[nH]cn1)C(=O)N1CCC[C@H]1C(=O)N[C@@H](CC(C)C)C(=O)N[C@@H](CC(N)=O)C(=O)N[C@@H](CC(=O)O)C(=O)N[C@H](C(=O)N[C@@H](C)C(=O)N[C@@H](CCCCNC(=O)CCc1cn(CCOCCOCCOCCOCCOCCOCCOCCOCCOCCOCCOCCOCCOCCOCCOCCOCCOCCOCCOCCOCCOCCOCCOCCNC(=O)CCOCC(COCCC(=O)NCCOCCOCCOCCOCCOCCOCCOCCOCCOCCOCCOCCOCCOCCOCCOCCOCCOCCOCCOCCOCCOCCOCCOCCn2cc(CCC(=O)NCCCC[C@H](NC(=O)[C@H](C)NC(=O)[C@@H]4CSCCC(=O)N5CN6CN(C5)C(=O)CCSC[C@H](NC(=O)[C@@H]5CCCN5C(=O)[C@H](CO)NC(=O)[C@H](Cc5ccc(O)cc5)NC(=O)[C@H](CC(C)C)NC(=O)[C@@H](NC(=O)[C@H](C)N)CSCCC6=O)C(=O)N[C@@H](Cc5c[nH]c6ccccc56)C(=O)N[C@@H](Cc5c[nH]cn5)C(=O)N5CCC[C@H]5C(=O)N[C@@H](CC(C)C)C(=O)N[C@@H](CC(N)=O)C(=O)N[C@@H](CC(=O)O)C(=O)N4)C(N)=O)nn2)(COCCC(=O)NCCOCCOCCOCCOCCOCCOCCOCCOCCOCCOCCOCCOCCOCCOCCOCCOCCOCCOCCOCCOCCOCCOCCOCCn2cc(CCC(=O)NCCCC[C@H](NC(=O)[C@H](C)NC(=O)[C@@H]4CSCCC(=O)N5CN6CN(C5)C(=O)CCSC[C@H](NC(=O)[C@@H]5CCCN5C(=O)[C@H](CO)NC(=O)[C@H](Cc5ccc(O)cc5)NC(=O)[C@H](CC(C)C)NC(=O)[C@@H](NC(=O)[C@H](C)N)CSCCC6=O)C(=O)N[C@@H](Cc5c[nH]c6ccccc56)C(=O)N[C@@H](Cc5c[nH]cn5)C(=O)N5CCC[C@H]5C(=O)N[C@@H](CC(C)C)C(=O)N[C@@H](CC(N)=O)C(=O)N[C@@H](CC(=O)O)C(=O)N4)C(N)=O)nn2)COCCC(=O)NCCOCCOCCOCCOCCOCCOCCOCCOCCOCCOCCOCCOCCOCCOCCOCCOCCOCCOCCOCCOCCOCCOCCOCCn2cc(CCC(=O)NCCCC[C@H](NC(=O)[C@H](C)NC(=O)[C@@H]4CSCCC(=O)N5CN6CN(C5)C(=O)CCSC[C@H](NC(=O)[C@@H]5CCCN5C(=O)[C@H](CO)NC(=O)[C@H](Cc5ccc(O)cc5)NC(=O)[C@H](CC(C)C)NC(=O)[C@@H](NC(=O)[C@H](C)N)CSCCC6=O)C(=O)N[C@@H](Cc5c[nH]c6ccccc56)C(=O)N[C@@H](Cc5c[nH]cn5)C(=O)N5CCC[C@H]5C(=O)N[C@@H](CC(C)C)C(=O)N[C@@H](CC(N)=O)C(=O)N[C@@H](CC(=O)O)C(=O)N4)C(N)=O)nn2)nn1)C(N)=O)CSCCC3=O [BCY12019], the “agonism of OX40” value (biotinylated peptides bound to streptavidin in a tetrameric format, BCY12019 synthetic tetramer) was “potent OX40 agonism” and the “agonism compared with the corresponding biotinylated monomer (BCY10549) bound to streptavidin” value (tetramer versus BCY10549 bound to streptavidin) was about 10 fold.
